Measured values as given in US20060148732A1, “Inhibition of NF-kappaB by triterpene compositions” (priority 2000, published 2006).
At least one structure is not confirmed: it was looked up by name or label, or the drawing left a doubt. Some entries share one result that the patent states for a list of compounds.

Assays:
Assay type in all cases: cell-based, human
[1] = tested on: Jurkat cells; assay: Annexin V-FITC binding assay (apoptosis); conditions: 1 ml (so in the source)
[2] = tested on: PARP in Jurkat cells; assay: Immunoblot analysis of PARP degradation; conditions: 2 μg/ml
Method: Apoptosis induced by F035 & D1 was examined by proteolytic cleavage of poly (ADP-ribose) polymerase (PARP). Jurkat cells (2×10^6/ml) were treated with F035 (2 μg/ml) and D1 (2 μg/ml) for different lengths of time. Cell lysates were prepared in buffer containing 20 mM HEPES, 250 mM NaCl, 2 mM EDTA, 0.1% NP-40, 2 μg/ml leupeptin, 2 μg/ml aprotinin, 0.5 μg/ml benzamidine, 1 mM DTT and 1 mM PMSF. Cellular proteins (60 μg/ml) were separated on a 7.5% SDS polyacrylamide gel and electrotransferred onto a nitrocellulose membrane. The membrane was probed first with monclonal anti-PARP antibody (PharMingen) and then with anti-mouse antibody conjugated to horse radish peroxidase (HRPO). Protein bands were detected by chemiluminescense (ECL, Amersham). The extent of cleavage of the 116-kDa PARP into 85-kDa and 41-kDa peptide products was used as a measure of apoptosis (Tewari et al., 1995).
Immunoblot Analysis of PARP Degradation. Induction of apoptosis was also examined by proteolytic cleavage of PARP (Nicholson and Thornberry, 1997). Jurkat cells (3×10^6) were treated with 2 μg/ml of F094, avicin D, or avicin G at 37° C. Cell lysates were prepared in a buffer containing 20 mM HEPES, 250 mM NaCl, 2 mM EDTA, 0.1% NP-40, 2 μg/ml leupeptin, 2 μg/ml aprotinin, 0.5 μg/ml benzamidine, 1 mM DTT, and 1 mM PMSF. […] Protein bands were detected by chemiluminescence (ECL). […]

[3] = tested on: caspase-3 in Jurkat cells; assay: Assay for caspase-3 protease; conditions: for peak of caspase 3 activation: post treatment
Method: Caspase-3 activity was measured as described earlier (Enari et al., 1995) with some modifications. Briefly, Jurkat cells (1×10^6/ml) were treated with F035, D1 & G1 for different lengths of time. Cytosolic extracts were prepared by repeated freeze thawing in 300 μl of extraction buffer (12.5 mM Tris, pH 7.0, 1 mM DTT, 0.125 mM EDTA, 5% glycerol, 1 μM PMSF, 1 μg/ml leupeptin, 1 μg/ml pepstatin and 1 μg/ml aprotinin). Cell lystates were diluted 1:2 with ICE buffer (50 mM Tris, pH 7.0, 0.5 mM EDTA, 4 mM DTT and 20% glycerol) and incubated with 20 μM of a caspase 3 substrate (acetyl-Asp-Glu-Val-Asp-aminomethylcoumarin) at 37° C. Caspase-3 activity was monitored by the production of fluorescent aminomethylcoumarin, which was measured at excitation 355 nm, emission 460 nm using Fluoroscan II (Labsystems, Helsinki, Finland).
Assay for Caspase-3 Protease. Caspase-3 activity was measured as described earlier (Martin et al, 1995) with some modifications. Briefly, Jurkat cells (1×10^6) were treated with F094, avicin D, or avicin G (2 μg/ml) at 37° C. Cytosolic extracts were prepared by repeated freeze thawing of the cells in 300 μl of an extraction buffer (12.5 mM Tris, pH 7.0, 1 mM DTT, 0.125 mM EDTA, 5% glycerol, 1 μM PMSF, 1 μg/ml leupeptin, 1 μg/ml pepstatin, and 1 μg/ml aprotinin). Cell lysates were diluted 1:2 with an ICE buffer (50 mM Tris, pH 7.0, 0.5 mM EDTA, 4 mM DTT, and 20% glycerol) and incubated with 20 μM of a caspase-3 substrate (acetyl-Asp-Glu-Val-Asp-aminomethylcoumarin) (Calbiochem, La Jolla, Calif.) at 37° C. Caspase-3 activity was monitored by the production of flourescent aminomethylcoumarin that was measured at excitation 355 nm and emission 460 nm, using Fluoroscan II (Labsystems, Helsinki, Finland).

[4] = tested on: AKT in Jurkat cells; assay: Western blot of phosphorylated and total AKT; conditions: known PI3-kinase inhibitors
Method: The effect of F035 on phosphorylation of AKT was analyzed as follows. Jurkat cells (5×10^6) were serum starved and exposed to F035 for 15 h and 2 h with wortmannin at 37° C. The cells were either induced with cd3XL (cd3 crosslink) or left uninduced for 10 min at 37° C. and lysed in AKT lysis buffer and the proteins were resolved on 8% SDS-PAGE gels and analyzed by western-ECL using phospho-specific AKT (Ser 473; New England Biolabs) and total AKT antibody. An assay of the effect of F035 on p70S6 kinase can be carried out similarly, but using a Phosphoplus p70S6 kinase antibody kit (New England Biolabs) for analysis of p70S6 kinase (Ser 411, thr421/ser424) phosphorylation. […] There was, however, no change in the expression of total AKT.
The expression of total and phosphorylated forms of AKT was determined by western blot analysis. Jurkat cells cultured in medium containing 0.5% FBS were treated with F035 and pure extracts D1 and G1 (2.0 μg/ml) for 15 h at 37° C. The cells were lysed in AKT Iysis buffer (20 mM Tris-HCl, 150 mM NaCI, 1 mM EDTA, 1 mM EGTA, 1% Triton X-100, 2.5 mM sodium pyrophosphate, 1 mM 8-glycerol phosphate, 1 mM Na3VO4, […], 1 mM PMSF pH 7.5). Cellular protein (40 μg) was resolved on 8% SDS-polyacrylamide gel and electrotransferred onto nitrocellulose membrane. […] Proteins were detected by chemiluminescence (ECL, Amersham, Arlington Heights, Ill.).

[5] = tested on: NF-κB in Jurkat cells; assay: EMSA of TNF-induced NF-κB activation; conditions: 1 μM
Method: Next, in order to further study the mechanism by which the active components inhibited tumor cells, the TNF-alpha induced activation of the transcription factor NF-κB was analyzed in Jurkat cells (3×10^6) which had been treated with 1-2 μg/ml of UA-BRF-004-DELEP-F035 and UA-BRF-004Pod-DELEP-F094. The study was carried out as follows: Jurkat cells were pretreated with 1-2 μg/ml of F035 or F094 for 15 h at 37° C. Cells were harvested and resuspended in 1 ml RPMI and treated with 100 pM of TNF-alpha for 30 min at 37° C. After TNF-alpha treatment, nuclear extracts were prepared according to Schreiber et al (1989). Briefly, the cells were washed with ice cold PBS and suspended in 0.4 ml of lysis buffer (10 mM HEPES, pH 7.9, 10 mM KCl, 0.1 mM EDTA, […], 0.1 mM EGTA, 1 mM dithiothreitol, 0.5 mM PMSF, 2 μg/ml of leupeptin, 2 μg/ml of aprotinin and 0.5 mg/ml benzamidine). The cells were allowed to sit on ice for 15 min and 25 μl of 10% Nonidet-40 was added to the cells. The tubes were mixed on the vortex and microcentrifuged for 30 s. […]
for 15 min at 37° C. in the presence of 2 μg of poly (dI-dC). […] The radioactive bands from the dried gels were visualized and quantitated by a PhosphoImager (Molecular Dynamics, Sunnyvale, Calif.) using ImageQuant software.
Treatment of Cells with Monoterpene Glycosides. […] At the end of the treatment, cells were washed in complete medium and counted. […]

C=C[C@](C)(O)CC/C=C(\CO)C(=O)O[C@H]1[C@H](O)[C@@H](O)[C@H](O[C@@](C)(C=C)CC/C=C(\CO)C(=O)O[C@H]2C[C@]3(C(=O)O[C@@H]4O[C@H](CO)[C@@H](O)[C@H](O)[C@H]4O[C@@H]4O[C@@H](C)[C@H](O[C@@H]5O[C@@H](CO)[C@H](O)[C@H]5O)[C@@H](O[C@@H]5O[C@H](CO)[C@@H](O)[C@H](O)[C@H]5O)[C@H]4O)[C@H](O)C[C@]4(C)C(=CC[C@@H]5[C@@]6(C)CC[C@H](O[C@@H]7O[C@H](CO[C@@H]8O[C@H](C)[C@H](O)[C@H](O)[C@H]8O[C@@H]8OC[C@@H](O)[C@H](O)[C@H]8O)[C@@H](O)[C@H](O)[C@H]7NC(C)=O)C(C)(C)[C@@H]6CC[C@]54C)[C@@H]3CC2(C)C)O[C@@H]1C [Fraction D1]
binding of annexin V to cells [1]: 15-17%
time at which cleavage of PARP begins [2]: ≤ 4 h
time of close to complete cleavage of PARP [2]: 6 to 8 h
time at which activation of caspase-3 is detectable ([3]; 2 μg/ml): 4 to 6 h
peak of caspase 3 activation [3]: 6 to 8 h

C=C[C@](C)(O)CC/C=C(\C)C(=O)O[C@H]1[C@H](O)[C@@H](O)[C@H](O[C@@](C)(C=C)CC/C=C(\CO)C(=O)O[C@H]2C[C@]3(C(=O)O[C@@H]4O[C@H](CO)[C@@H](O)[C@H](O)[C@H]4O[C@@H]4O[C@@H](C)[C@H](O[C@@H]5O[C@@H](CO)[C@H](O)[C@H]5O)[C@@H](O[C@@H]5O[C@H](CO)[C@@H](O)[C@H](O)[C@H]5O)[C@H]4O)[C@H](O)C[C@]4(C)C(=CC[C@@H]5[C@@]6(C)CC[C@H](O[C@@H]7O[C@H](CO[C@@H]8O[C@H](C)[C@H](O)[C@H](O)[C@H]8O[C@@H]8OC[C@@H](O)[C@H](O)[C@H]8O)[C@@H](O)[C@H](O)[C@H]7NC(C)=O)C(C)(C)[C@@H]6CC[C@]54C)[C@@H]3CC2(C)C)O[C@@H]1C [Fraction G1]
binding of annexin V to cells [1]: 15-17%
peak of caspase 3 activation [3]: 6 to 8 h

O=c1cc(N2CCOCC2)oc2c(-c3ccccc3)cccc12 [LY 294002, reference compound]
AKT phosphorylation [4]: inhibition of AKT phosphorylation

COC[C@H]1OC(=O)c2coc3c2[C@@]1(C)C1=C(C3=O)[C@@H]2CCC(=O)[C@@]2(C)C[C@H]1OC(C)=O [wortmannin, reference compound]
AKT phosphorylation [4]: inhibition of AKT phosphorylation
inhibition of TNF-induced NF-κB [5]: almost total inhibition
